Experimental findings from EP4445957A1 (priority 2023, dated 2024) are described below.

What all share (details): whole synthesis, scale 0.1 mmol, chloride (salt exchange from trifluoroacetate)
Series [1] in a line: general procedure: Fmoc solid-phase peptide synthesis; Fmoc-Phe preloaded Wang resin (loading = 0.33 mmol/g); DIC (symmetric anhydride for resin loading).
A short description of series [2]: general procedure: Fmoc solid-phase peptide synthesis; Fmoc-Phe preloaded Wang resin (loading = 0.52 mmol/g); DIC (symmetric anhydride for resin loading).
The nature of series [3]: general procedure: Fmoc solid-phase peptide synthesis; Wang resin (loading = 0.37 mmol/g); DIC (symmetric anhydride for resin loading).
Series [4] in a line: general procedure: Fmoc solid-phase peptide synthesis; Wang resin (loading = 0.52 mmol/g); DIC (symmetric anhydride for resin loading).

For some assays here: Strings that start with PEPTIDE1 are HELM notation: dots part the residues, brackets hold end groups and non-standard residues.

In the case of “Ac-Gln-Cha-Dap(N-sulfonyl pyridone)-Leu-Phe-OH”, in series [1], the isolated mass was determined as 8.6 mg and the isolated yield was 9%.

For “Ac-Gln-Cha-Dap(but-2-enamide)-Leu-Phe-OH”, in series [2], the isolated mass turned out to be 38.3 mg and the isolated yield was 51%.

As to “Ac-Gln-Cha-Dap(chloroacetamide)-Leu-diClPhe-OH”, in series [3], the isolated mass was found to be 17.4 mg and the isolated yield stood at 21%.

For the substance “PEPTIDE1{[ac].Q.[Cha].[Dap(acrylamide)].L.F}$$$$V2.0”, in series [2], the isolated mass stood at 22.7 mg and the isolated yield turned out to be 24%.

Turning to “PEPTIDE1{[ac].Q.[Cha].[Dap(bromoacetamide)].L.F}$$$$V2.0”, in series [4], the isolated mass was 41.4 mg and the isolated yield is listed as 51%.

Consider “PEPTIDE1{[ac].Q.[Cha].[Dap(but-2-ynamide)].L.F}$$$$V2.0”, for which, in series [2], the isolated mass came out at 33.1 mg and the isolated yield turned out to be 35%.

Turning to “PEPTIDE1{[ac].Q.[Cha].[Dap(chloroacetamide)].L.F}$$$$V2.0”, in series [2], the isolated mass came to 12.5 mg and the isolated yield was found to be 16%.
